Measurements published in patent US20060166920A1, “Oligonucleotide based therapeutics” (Regents of the University of Michigan, priority 2004, published 2006).
Some entries share one result that the patent states for a list of compounds.

Tested on: human Bcl-xL
Test: Western blot of PC-3 cells transfected with Bcl-xL siRNA cassettes
Type: cell-based
Conditions: 0.4 μg siRNA cassette DNA per well, LipofectaminePlus, 48 hr, compared to F-Luc siRNA or liposome control
Description: Human prostate cancer PC-3 cells and human breast cancer MCF-7 cells were transfected with the designed Bcl-xL dsRNA (siRNA) cassettes, using a transferrin-liposome system (LipofectaminePlus, Invitrogen). Briefly, 5×10^5 cells were plated per well in 6-well plates. After overnight culture, the cells were 60% to 70% confluent. The transfection was performed according to the manufacturer's instruction, with 0.4 μg siRNA cassette DNA per well. The cells were cultured for 48 hr, then harvested and cell lysates were made for Western blot analysis. 15 μg of protein were added to each lane for SDS-PAGE. […] Similar results were also observed in MCF-7 cells (See, e.g., FIG. 2). […] Therefore, with efficient delivery to the cells, the Bcl-xL siRNA effectively induces cell death.

Molecule	down-regulation of Bcl-xL expression
siRNA #2: Bcl-xL small hairpin siRNA cassette, SEQ ID NO: 4, 76 bp (nucleic acid, listed as Homo sapiens, expressed or natural sequence; the letters are possibly those of the target site) DNA: GGATCCCGCTTGTCTACGCTTTCCACGCATTGATATCCGTGCGTGGAAAGCGTAGACAAGTTTTTTCCAAAAGCTT	up to 50%
siRNA #3: Bcl-xL small hairpin siRNA cassette, SEQ ID NO: 5, 76 bp (nucleic acid, listed as Homo sapiens, expressed or natural sequence; the letters are possibly those of the target site) DNA: GGATCCCGCGATCCGACTCACCAATACCTTTGATATCCGAGGTATTGGTGAGTCGGATCGTTTTTTCCAAAAGCTT	up to 50%
